Reference: paper PMC3639266
No constants are given. Whether binding was seen depends on the method and setting. Some entries that bind do so weakly or less than the wild type.

Amino acid sequences for entries named in this document (tags omitted).
UniProt P84077: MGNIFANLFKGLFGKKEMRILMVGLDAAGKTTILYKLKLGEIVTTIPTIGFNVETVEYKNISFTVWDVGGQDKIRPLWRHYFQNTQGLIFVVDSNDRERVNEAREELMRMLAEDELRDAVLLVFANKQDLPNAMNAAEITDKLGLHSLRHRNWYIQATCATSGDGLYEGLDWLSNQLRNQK

What was measured:
Arf1 [1] = molecular target: Arf1 (UniProt P84077); assay: liposome flotation on sucrose gradient; Proteins 0.75 µM each and Golgi-mix LUVs 0.75 mM lipids (extruded 200, 100, 50, 30 nm) in HKM buffer, room temperature, 20 min; Arf1 loaded with GTP (or GDP as control); top and bottom fractions analysed by SDS-PAGE (Alexa^488 fluorescence, Sypro orange); both purified
[2] = molecular target: myristoylated Arf1 tagged with hexa-histidine (UniProt P84077); assay: FRET or BRET; FRET between Arfaptin2-Alexa^488 (0.5 µM) and TRITC-DHPE (1 mol%) in Golgi-mix LUVs (0.5 mM) with 0.5 µM myr-Arf1-H6, HKM buffer, cuvette; GTP 0.1 mM, EDTA 2 mM, MgCl2 2 mM, then ArfGAP1 10 nM added in turn; the signal reports Arfaptin2 on the membrane after Arf1 activation and reverses after ArfGAP1; both purified
Arf1 [3] = molecular target: Arf1 (UniProt P84077); assay: confocal fluorescence microscopy of GUVs and kinesin-pulled membrane tubes; Golgi-mix GUVs and tube networks incubated with 1 to 3 µM Arfaptin2-Alexa^488 and 1 to 3 µM Arf1 bound to GTPγS (or GDP as control); Arfaptin2 fluorescence on membranes; both purified

binding (Arf1 [1]): binds | binding [2]: binds | binding (Arf1 [3]): binds
B1: Arfaptin2 labelled with Alexa^488 (protein, UniProt P53365 1-341)
chain: MTDGILGKAATMEIPIHGNGEARQLPEDDGLEQDLQQVMVSGPNLNETSIVSGGYGGSGDGLIPTGSGRHPSHSTTPSGPGDEVARGIAGEKFDIVKKWGINTYKCTKQLLSERFGRGSRTVDLELELQIELLRETKRKYESVLQLGRALTAHLYSLLQTQHALGDAFADLSQKSPELQEEFGYNAETQKLLCKNGETLLGAVNFFVSSINTLVTKTMEDTLMTVKQYEAARLEYDAYRTDLEELSLGPRDAGTRGRLESAQATFQAHRDKYEKLRGDVAIKLKFLEENKIKVMHKQLLLFHNAVSAYFAGNQKQLEQTLQQFNIKLRPPGAEKPSWLEEQ
modifications: Alexa^488 label (Alexa^488-C5-Maleimide), dye/protein ratio around 2
